Assay results taken from patent US20190092852A1.
These are yes or no findings as the source states them, for the method shown. Some entries that bind do so weakly or less than the wild type.

By UniProt entry, the sequences of proteins in these tests, tags left out. Residues count along the entry.
UniProt O95760, residues 112-270: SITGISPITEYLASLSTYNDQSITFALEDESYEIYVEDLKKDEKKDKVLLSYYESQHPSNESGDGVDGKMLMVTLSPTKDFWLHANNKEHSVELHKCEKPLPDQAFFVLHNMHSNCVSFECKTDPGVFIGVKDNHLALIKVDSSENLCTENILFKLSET

Key:
[1] = molecular target: biotinylated cyno IL-33 (cynomolgus monkey); test: competitive binding ELISA; biotin-cyIL-33 pre-mixed with antibody, binding to coated human ST2-Fc detected
[2] = molecular target: cyno IL-33 (construct not stated) (cynomolgus monkey); test: ELISA, hybridoma supernatant on coated IL-33
[3] = molecular target: human IL-33 (construct not stated) (human) (UniProt O95760); test: ELISA, hybridoma supernatant on coated IL-33

Row | Binder | binding [1] | binding [2] | binding [3]
1 | 10C12.38.H6.87Y.58I IgG4 (antibody, V domains shown) VH: EVQLVESGGGLVQPGGSLRLSCAASGFTFSSFSMSWVRQAPGKGLEWVATISGGKTFTDYVDSVKGRFTISRDDSKNTLYLQMNSLRAEDTAVYYCTRANYGNWFFEVWGQGTLVTVSS VL: EIVLTQSPATLSLSPGERATLSCRASESVAKYGLSLLNWFQQKPGQPPRLLIFAASNRGSGIPARFSGSGSGTDFTLTISSLEPEDFAVYYCQQSKEVPFTFGQGTKVEIKR | binds | – | –
2 | 10H2 (antibody, V domains shown) VH: EVKLEESGGGLVQPGGSMKLSCVASGFTFSNYWMNWVRQSPEKGLEWMAEITLKFNNYSTHYAESVKGRFSISRDDSKSTVYLQMNNLRAEDTGIYYCARRNYGDWYINVWGAGTTVTVSS VL: DIVLTQSPTSLAVSLGQRATISCRASESVDKFGMSFLNWFQQKPGQPPKLLIFVASSQGSGVPARFSGSGSGTDFSLNIHPVEEDDTAMYFCQQSKDIPYTFGGGTKLEIK | – | binds | –
3 | 10C12 (antibody, V domains shown) VH: DVNLVESGGGSVKPGGSLKLSCVASGFTFSSFSMSWVRQTPEKRLEWVATISGGKTFTDYVDSVKGRFTISRDDAKNTLYLQMSSLESEDTAMYYCTRANYGNWFFEVWGAGTTVAVSS VL: DIVLTQSPGFLVVSLGQRATISCRASESVAKYGLSLLNWFQQKPGQPPKLLIFAASNRGSGVPARFSGSGSGTDFSLNIHPMEEDDTAMYFCQQSKEVPFTFGSGTKLEIK | – | binds | binds
4 | 2B6 (antibody, V domains shown) VH: EVLLQQSGPELVKPGASVKISCNASGYTFSDYNMNWVKQSHGKSLESIGDINPKNGDTFYNQNFKDKATLTIDKSSSTVYMELRSLTSEDTAMYYCARHYYYGSSYGGFVYWGQGTLVTVAA VL: DIQMNQSPSSLSASLGDTITITCHASQNINVWLSWYQQKAGNNPKLLIYAASKLHTGVPSRFTGSGSGTLFTLTISSLQPEDIATYYCQQGQSYPLTFGSGTNLELK | – | binds | –
5 | 9F6 (antibody, V domains shown) VH: QVQLQQSGNDLVKPGASVKLSCKASGYTFTSYWINWIKQRPGQGLEWIGRIAPGSGFISYNELFKDKATLTVDTSSSTAYIQLGSLSSEDSAVYFCAREFYYGSFYGGFAYWGQGTLVTVSA VL: DIQMNQSPSSLSASLGDTITITCHASQNIHVWLSWYQQKPGNIPKLLIYKASTLHTGVPSRFNGSGSGTGFTLTISSLQPEDIATYYCQQGQSSPLTFGAGTKLEVK | – | binds | –
